From article PMC10721329, “Quisinostat is a brain-penetrant radiosensitizer in glioblastoma” (JCI Insight, 2023)
Values joined by “and” are separate entries in the source; they are usually repeats but may differ in a detail not shown here. Identical values can stand only once. Further values from the same series stand in other lists.

Experiments:
[1] = Stability in mouse plasma at 37°C; format: in vitro ADME; settings: for [QST], % of control: replicates
Experimental: Hydroxamic acid–based compounds have been reported to display poor stability and high plasma clearance due to the presence of arylesterases and carboxylesterases in rodent blood ([34]). Therefore, we measured the stability of QST in mouse plasma and brain to determine whether drug degradation occurred during our sample preparations and equilibrium dialyses for the determination of unbound drug level (performed at 37°C). […] QST degradation was also observed in mouse brain homogenate (Figure 6B). However, perfusion of mice before brain collection prevented rapid drug degradation in the brain matrix. […] Degradation of QST can also be constrained if plasma and brain samples are processed at 4°C (Supplemental Figure 4A). All subsequent sample preparations were therefore performed on ice-cold baths to avoid degradation of QST in our PK analyses. […] The observed stability is probably due to the absence of esterases in human matrices, which are responsible for degradation of QST ([34]). Because we employed QST in several in vitro studies (Figures 1–4), the stability of the molecule was also tested in the cell media used to culture GSCs (neurobasal medium; see Methods).
Stability Study in Mouse Plasma, Mouse Brain, Human Plasma, Human Brain, and Neural […]
The stability of QST was determined in BALB/c mouse plasma, male nude athymic perfused and nonperfused mouse brain homogenate (1:9 w/v of PBS; pH 7.4), human brain (obtained from VRL Eurofins) homogenate (1:4 w/v of PBS; pH 7.4), pooled human plasma (Innovative Research), and neurobasal media. QST stock solutions (1 mM) were prepared in acetonitrile, subsequently diluted in a 40% methanol mixture, and added t o the matrices to make […]
[…] Then 50 or 30 µL of either plasma or brain homogenate containing QST were aliquoted into 1.5-mL microcentrifuge tubes (Eppendorf) and were incubated at either 4 °C or 37 °C for 0, 2, 4, 6, 12, or 24 hours (n = 3 at each time point).
The stability of QST in mouse plasma was also tested at 0, 2, 8, 16, or 24 hours (n = 3 at each time point) in the presence of esterase inhibitors: 0.25 mM BNPP, 1mM dithiobis(2-nitrobenzoic acid) (DTNB), or 1.25 mM phenylmethylsulfonyl fluoride (PMSF). Plasma and brain homogenate samples were stored at −80 °C until LC-MS/MS analysis. […]

orthotopic GB126 tumors = assay: Bioluminescence imaging of tumor burden, orthotopic GB126 PDX; format: in vivo, athymic nude mice; settings: individual mice
Experimental: We additionally questioned whether QST, either alone or in combination with IR, could extend the survival of tumor-bearing mice. In this study, mice received the same treatments described above, but after completion of the 1-week IR regimen, mice continued to receive QST at 10 mg/kg or vehicle solution on MWF until study completion, as determined by large tumor burden and onset of neurological symptoms (Figure 8A). […] Although QST monotherapy slowed tumor growth, median survival for the QST-treated mice was only 4 days longer than for the vehicle-treated mice (P < 0.01), and IR alone increased median survival by 17 days (P < 0.001; Figure 8D). However, combining QST with IR led to a significant increase in median survival (37 days, P < 0.001) compared with the vehicle (Figure 8D). […]
Rad225XL irradiator (Precision X -Ray). […]
Live Bioluminescence Imaging
Two weeks after implantation, mice were examined for tumor growth by monitoring bioluminescence every 7 days using the IVIS Xenogen Spectrum platform. D -Luciferin Potassium Salt (Gold Biotechnology) was dissolved in PBS at a final concentration of 15 mg/mL. All mice were weighed each week and administered D -Luciferin via an intraperitoneal injection (10 μl/g). Fifteen minutes after injection, the mice were sedated using gaseous isoflurane (Piramal) and placed inside an IVIS Spectrum in vivo imaging system (Perkin Elmer) […]
for bioluminescence imaging. The total flux (photons/second) within the region of interest was calculated using the Living Image software 4.5 (Perkin Elmer).
Preparation of QST for In Vivo Use
For in vivo preparation, QST was dissolved in 50% polyethylene glycol (PEG) 300, 50% sterile water solution for 10 mg/kg dosing. The suspension was then sonicated for 10 minutes to allow the drug to completely dissolve. Finally, the pH of both the drug and the vehicle solutions was adjusted to 7.4 before intraperitoneal dosing. […]
In Vivo Irradiation Studies
Intracranial or flank tumor–bearing nude mice were sedated with gaseous isoflurane before
IR. On the first week of treatment, 2 hours after treatment with QST or vehicle, the mice were […]

[2] = mouse plasma 37C, 500 nM, Time 0
[3] = mouse plasma 37C, 500 nM, Time 1
[4] = mouse plasma 37C, 500 nM, Time 2
[5] = mouse plasma 37C, 500 nM, Time 4
[6] = mouse plasma 37C, 500 nM, Time 8

Which “[QST], % of control, Average” value ([1]; mouse plasma 37C, 10nM, Time 0) does the source give for `Cn1cc(CNCC2CCN(c3ncc(C(=O)NO)cn3)CC2)c2ccccc21` [QST, quisinostat] here?
Its value is 100.0%.

And the “[QST], % of control” value ([1]; mouse plasma 37C, 10nM, Time 0)?
The value was 96.1% and 98.4% and 105.5%.

And the “[QST], % of control, Average” value ([1]; mouse plasma 37C, 10nM, Time 1)?
The value was 43.2%.

And the “[QST], % of control” value ([1]; mouse plasma 37C, 10nM, Time 1)?
The value was 41.3% and 43.5% and 44.8%.

And the “[QST], % of control, Average” value ([1]; mouse plasma 37C, 10nM, Time 2)?
Its value is 16.6%.

What about the “[QST], % of control” value ([1]; mouse plasma 37C, 10nM, Time 2) of the same compound?
The value was 17.1% and 16.8% and 16.0%.

What about the “[QST], % of control, Average” value ([1]; mouse plasma 37C, 10nM, Time 4) of the same compound?
Its value is 3.0%.

And the “[QST], % of control” value ([1]; mouse plasma 37C, 10nM, Time 4)?
Its value is 2.9% and 3.1%.

And the “[QST], % of control, Average” value ([1]; mouse plasma 37C, 10nM, Time 8)?
The value was 2.2%.

And the “[QST], % of control” value ([1]; mouse plasma 37C, 10nM, Time 8)?
Its value is 2.6% and 2.0% and 2.1%.

What about the “[QST], % of control, Average” value [1, 2] of the same compound?
The value was 100.0%.

And the “[QST], % of control” value [1, 2]?
The value was 95.4% and 99.9% and 104.7%.

And the “[QST], % of control, Average” value [1, 3]?
The value was 39.7%.

What about the “[QST], % of control” value [1, 3] of the same compound?
Its value is 38.2% and 40.9% and 39.9%.

What about the “[QST], % of control, Average” value [1, 4] of the same compound?
The value was 15.1%.

What about the “[QST], % of control” value [1, 4] of the same compound?
Its value is 14.0% and 16.4% and 15.0%.

And the “[QST], % of control, Average” value [1, 5]?
Its value is 1.3%.

What about the “[QST], % of control” value [1, 5] of the same compound?
The value was 1.4% and 1.3%.

And the “[QST], % of control, Average” value [1, 6]?
The value was 0.1%.

What about the “[QST], % of control” value [1, 6] of the same compound?
Its value is 0.0874% and 2.5% and 0.11%.

What about the “[QST], % of control” value ([1]; mouse plasma, 10 nM, Time 0 hrs as printed) of the same compound?
The value was 96.1% and 98.4% and 105.5%.

What about the “[QST], % of control” value ([1]; mouse plasma, 10 nM, Time 2 hrs as printed) of the same compound?
The value was 41.3% and 43.5% and 44.8%.

What about the “[QST], % of control” value ([1]; mouse plasma, 10 nM, Time 4 hrs as printed) of the same compound?
Its value is 17.1% and 16.8% and 16%.

And the “[QST], % of control” value ([1]; mouse plasma, 100 nM, Time 0 hrs as printed)?
The value was 95.4% and 99.9% and 104.7%.

What about the “[QST], % of control” value ([1]; mouse plasma, 100 nM, Time 2 hrs as printed) of the same compound?
Its value is 38.2% and 40.9% and 39.9%.

And the “[QST], % of control” value ([1]; mouse plasma, 100 nM, Time 4 hrs as printed)?
The value was 14% and 16.4% and 15%.

What about the “IVIS imaging, bioluminescence” value (orthotopic GB126 tumors; Qstat 10 mg/kg + IR 6 Gy, day 15 post Tx start) of the same compound?
The value was 26800000 photons/seconds and 37200000 photons/seconds and 120000 photons/seconds and 14500000 photons/seconds and 62700000 photons/seconds and 53400000 photons/seconds and 14400000 photons/seconds and 172000 photons/seconds and 4050000 photons/seconds and 3070000 photons/seconds.

What about the “IVIS imaging, bioluminescence” value (orthotopic GB126 tumors; Qstat 10 mg/kg + IR 6 Gy, day 22 post Tx start) of the same compound?
The value was 9630000 photons/seconds and 31100000 photons/seconds and 54800000 photons/seconds and 12000000 photons/seconds and 57600000 photons/seconds and 1060000 photons/seconds and 9290000 photons/seconds (2×) and 3550000 photons/seconds and 41500000 photons/seconds.

What about the “IVIS imaging, bioluminescence” value (orthotopic GB126 tumors; Qstat 10 mg/kg alone, day 15 post Tx start) of the same compound?
The value was 50000000 photons/seconds and 4160000 photons/seconds and 3400000 photons/seconds and 1340000 photons/seconds.

And the “IVIS imaging, bioluminescence” value (orthotopic GB126 tumors; Qstat 10 mg/kg alone, day 22 post Tx start)?
Its value is 158000000 photons/seconds and 3200000000 photons/seconds and 263000000 photons/seconds and 2150000000 photons/seconds and 1030000000 photons/seconds and 5630000000 photons/seconds and 483000000 photons/seconds and 3670000000 photons/seconds and 83600000 photons/seconds and 685000000 photons/seconds.
